Measurements from patent US12668830B2, “Pharmaceutical compositions for prevention and/or treatment of infections and antibacterial-induced dysfunctions” (priority 2018, dated 2026).
At least one compound was matched to its structure with a doubt left.

System: E. coli BW mutants (ΔacrA, respiration-defective)
Format: cell-based, Escherichia coli
Conditions: ciprofloxacin 70% MIC
Procedure: Aminoglycosides depend on PMF-energized uptake and thus respiratory complexes; ciprofloxacin is effluxed by AcrAB-TolC. […] Bliss interaction scores (ε) were calculated as in the screen and are represented by the mean and standard deviation across 3-8 replicates. d) Gentamicin and ciprofloxacin antagonism networks for E. coli BW. Nodes represent drugs colored according to targeted cellular process (as FIG. 1a). Full and dashed edges represent antagonistic drug-drug interactions for which intracellular antibiotic concentration was and was not measured, respectively. […] The bars for fluoroquinolones and aminoglycosides account for an extrapolation of antagonistic interactions to all other members of the two classes, assuming they behave the same as ciprofloxacin and gentamicin, respectively.
The kanamycin resistance cassettes was excised when necessary using the plasmid pCP20. The plasmid used for mdfA overexpression was obtained from the mobile E. coli ORF library.

SMILES: C[C@H]1c2cccc(O)c2C(=O)C2=C(O)[C@]3(O)C(=O)C(C(N)=O)=C(O)[C@@H](N(C)C)[C@@H]3[C@@H](O)[C@@H]21 [doxycycline]
- Antagonism with ciprofloxacin in mutant: remain largely intact
